Experiment in all cases: co-IP; lysates of transfected HCT116 knockout cells; anti-Flag antibody and protein G-coupled Sepharose beads; washed with 50 mM Tris/Cl pH 8.0, 1% NP-40, 150 mM NaCl, then PBS; blots of endogenous partners after reducing and non-reducing SDS-PAGE
The target in test [1] is T1, 3x Flag-tagged WT EDEM2 (human) (UniProt Q9BV94).
T1 sequence: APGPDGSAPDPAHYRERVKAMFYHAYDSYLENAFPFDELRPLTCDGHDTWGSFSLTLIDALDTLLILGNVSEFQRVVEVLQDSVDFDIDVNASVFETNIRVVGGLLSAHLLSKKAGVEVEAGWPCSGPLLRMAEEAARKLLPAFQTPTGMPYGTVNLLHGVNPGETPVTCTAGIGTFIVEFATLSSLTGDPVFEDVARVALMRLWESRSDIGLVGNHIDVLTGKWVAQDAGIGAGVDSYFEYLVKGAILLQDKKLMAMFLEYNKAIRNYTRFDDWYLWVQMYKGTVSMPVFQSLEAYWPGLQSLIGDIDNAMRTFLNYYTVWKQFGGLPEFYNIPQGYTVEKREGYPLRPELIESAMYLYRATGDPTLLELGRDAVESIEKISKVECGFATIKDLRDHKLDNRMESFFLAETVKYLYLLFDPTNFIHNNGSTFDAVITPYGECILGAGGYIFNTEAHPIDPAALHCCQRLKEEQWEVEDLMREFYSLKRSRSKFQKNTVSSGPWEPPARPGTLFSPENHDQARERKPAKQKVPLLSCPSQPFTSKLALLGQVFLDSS

The chains behind the UniProt entries cited, without tags or fusion partners. Residues count along the entry.
UniProt P07237, residues 18-508: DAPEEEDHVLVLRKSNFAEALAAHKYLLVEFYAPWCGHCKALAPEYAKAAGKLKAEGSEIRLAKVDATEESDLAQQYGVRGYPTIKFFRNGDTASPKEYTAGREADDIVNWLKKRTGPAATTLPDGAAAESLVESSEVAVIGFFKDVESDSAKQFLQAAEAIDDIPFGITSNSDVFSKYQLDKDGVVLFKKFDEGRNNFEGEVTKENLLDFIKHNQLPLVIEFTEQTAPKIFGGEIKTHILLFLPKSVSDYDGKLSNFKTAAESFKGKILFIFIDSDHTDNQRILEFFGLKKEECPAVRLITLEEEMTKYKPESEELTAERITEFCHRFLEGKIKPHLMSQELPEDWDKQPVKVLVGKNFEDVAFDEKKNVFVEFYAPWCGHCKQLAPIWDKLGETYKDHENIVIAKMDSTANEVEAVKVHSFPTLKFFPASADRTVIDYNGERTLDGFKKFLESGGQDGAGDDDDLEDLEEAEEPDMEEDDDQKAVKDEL

Test [2] has as its target T2, 3x Flag-tagged EDEM2 C65A (human) (UniProt Q9BV94).
T2 sequence: T1 sequence with C44A

In test [3] the target is T3, 3x Flag-tagged EDEM2 C408A (human) (UniProt Q9BV94).
T3 sequence: T1 sequence with C387A

For test [4], the target named is T4, 3x Flag-tagged EDEM2 C558A (human) (UniProt Q9BV94).
T4 sequence: T1 sequence with C537A

Test [5] has as its target T5, 3x Flag-tagged C692S mutant of TXNDC11 (human) (UniProt Q6PKC3).
T5 sequence: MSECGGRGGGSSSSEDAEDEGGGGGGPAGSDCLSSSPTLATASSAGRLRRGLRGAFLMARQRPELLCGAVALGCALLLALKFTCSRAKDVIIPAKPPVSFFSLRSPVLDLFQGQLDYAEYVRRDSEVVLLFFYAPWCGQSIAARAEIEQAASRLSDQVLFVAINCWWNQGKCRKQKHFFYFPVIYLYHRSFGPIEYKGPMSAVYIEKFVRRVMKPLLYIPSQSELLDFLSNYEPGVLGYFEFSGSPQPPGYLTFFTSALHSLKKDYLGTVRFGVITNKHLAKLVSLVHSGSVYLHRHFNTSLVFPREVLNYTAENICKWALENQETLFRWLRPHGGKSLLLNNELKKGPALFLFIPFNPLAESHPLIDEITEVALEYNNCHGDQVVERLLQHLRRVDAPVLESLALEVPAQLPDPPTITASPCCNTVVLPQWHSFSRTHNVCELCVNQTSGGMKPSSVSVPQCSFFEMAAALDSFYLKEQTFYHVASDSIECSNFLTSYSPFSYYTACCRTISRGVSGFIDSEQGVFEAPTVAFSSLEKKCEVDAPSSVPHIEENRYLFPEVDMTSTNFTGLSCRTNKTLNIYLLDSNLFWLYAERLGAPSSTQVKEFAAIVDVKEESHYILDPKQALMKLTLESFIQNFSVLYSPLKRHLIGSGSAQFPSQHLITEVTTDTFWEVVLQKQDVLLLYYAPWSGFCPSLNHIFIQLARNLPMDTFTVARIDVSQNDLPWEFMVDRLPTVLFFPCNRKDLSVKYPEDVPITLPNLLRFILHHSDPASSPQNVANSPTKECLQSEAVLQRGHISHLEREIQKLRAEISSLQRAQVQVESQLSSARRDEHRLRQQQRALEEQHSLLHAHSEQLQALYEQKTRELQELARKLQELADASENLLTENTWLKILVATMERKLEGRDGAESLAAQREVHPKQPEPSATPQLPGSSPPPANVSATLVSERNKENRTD

For test [6], the target named is T6, 3x Flag-tagged TXNDC11 (WT) (human) (UniProt Q6PKC3).
T6 sequence (chain, N-glycosylated): T5 sequence with S692C

Where a chain is given by its changes, count along the chain named. These are yes or no findings as the source states them, for the method shown. In cells and extracts the contact can be indirect. Some results given as binding are weak or reduced against the parent protein; the word gives no strength. Tags and fused reporters may be left off the sequences shown.

For “endogenous PDI (from UniProt P07237 18-508) (enzyme)”, the binding result in test [1], in test [2], in test [3] and in test [4] was “binds” throughout.

B1: endogenous EDEM2 (enzyme, UniProt Q9BV94 22-578)
chain: T1 sequence
Turning to B1, the binding result in test [5] is listed as “no binding”; in test [6] it was “binds”.

(Values after paper PMC7039678.)
